Values of other authors as cited in patent US10905703B2, “Preparation of a composition containing stilbene glycoside” (priority 2015, dated 2021).
At least one compound was matched to its structure with a doubt left.

Conditions: cited from earlier work

## OC[C@H]1O[C@@H](Oc2c(O)cc(O)cc2/C=C/c2ccc(O)cc2)[C@H](O)[C@@H](O)[C@@H]1O [stilbene glycoside, 2,3,5,4-tetrahydroxystilbene 2-O-β-glucopyranoside]
  stability in acid: very unstable
  stability in water solutions: stable
